Measurements as given in paper PMC10613257.
No constants are given. Whether binding was seen depends on the method and setting.

Amino acid sequences for entries named in this document (tags omitted). Residues count along the entry.
UniProt Q9BXP8, residues 235-1791: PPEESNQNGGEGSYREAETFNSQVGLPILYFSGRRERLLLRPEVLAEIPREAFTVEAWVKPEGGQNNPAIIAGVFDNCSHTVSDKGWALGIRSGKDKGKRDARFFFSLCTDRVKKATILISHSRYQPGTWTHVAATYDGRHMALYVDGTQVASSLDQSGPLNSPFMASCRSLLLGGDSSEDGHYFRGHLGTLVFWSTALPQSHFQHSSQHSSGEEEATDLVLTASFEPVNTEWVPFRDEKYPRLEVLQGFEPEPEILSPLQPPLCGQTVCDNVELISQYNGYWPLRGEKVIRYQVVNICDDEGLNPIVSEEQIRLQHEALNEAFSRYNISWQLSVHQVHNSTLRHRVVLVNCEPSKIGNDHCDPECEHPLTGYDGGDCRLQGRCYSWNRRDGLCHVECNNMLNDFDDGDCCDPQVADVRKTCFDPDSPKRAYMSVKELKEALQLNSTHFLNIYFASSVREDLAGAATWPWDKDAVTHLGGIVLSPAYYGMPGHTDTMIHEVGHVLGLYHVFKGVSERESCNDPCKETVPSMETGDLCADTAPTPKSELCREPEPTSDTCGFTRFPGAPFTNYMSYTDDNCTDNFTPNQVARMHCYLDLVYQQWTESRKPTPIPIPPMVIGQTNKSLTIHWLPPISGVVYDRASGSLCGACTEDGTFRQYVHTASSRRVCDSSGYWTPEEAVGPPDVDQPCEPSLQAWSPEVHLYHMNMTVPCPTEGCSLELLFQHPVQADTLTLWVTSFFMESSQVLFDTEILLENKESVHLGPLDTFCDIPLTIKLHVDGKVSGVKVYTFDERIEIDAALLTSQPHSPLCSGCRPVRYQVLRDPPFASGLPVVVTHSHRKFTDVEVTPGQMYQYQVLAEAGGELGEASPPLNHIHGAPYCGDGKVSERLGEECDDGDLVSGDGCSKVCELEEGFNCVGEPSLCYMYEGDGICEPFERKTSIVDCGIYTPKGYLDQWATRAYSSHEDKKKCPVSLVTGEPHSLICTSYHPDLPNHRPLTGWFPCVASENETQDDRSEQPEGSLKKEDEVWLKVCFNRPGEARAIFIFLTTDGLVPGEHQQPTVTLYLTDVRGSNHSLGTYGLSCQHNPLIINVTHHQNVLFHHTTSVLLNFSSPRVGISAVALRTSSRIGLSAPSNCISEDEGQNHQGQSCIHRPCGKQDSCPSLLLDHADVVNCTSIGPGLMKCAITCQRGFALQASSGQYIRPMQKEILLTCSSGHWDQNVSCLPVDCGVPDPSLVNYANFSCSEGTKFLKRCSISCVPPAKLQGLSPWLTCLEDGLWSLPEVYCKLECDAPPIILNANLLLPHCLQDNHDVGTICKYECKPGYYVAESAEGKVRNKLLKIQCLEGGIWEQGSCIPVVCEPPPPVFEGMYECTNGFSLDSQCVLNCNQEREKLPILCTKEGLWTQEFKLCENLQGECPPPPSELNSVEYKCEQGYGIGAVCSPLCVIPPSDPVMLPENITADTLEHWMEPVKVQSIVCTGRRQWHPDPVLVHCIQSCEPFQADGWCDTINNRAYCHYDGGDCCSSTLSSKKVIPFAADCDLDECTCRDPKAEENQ

Columns and labels:
[1] = target: Pregnancy-Associated Plasma Protein A2 (PAPP-A2), wild type (human) (UniProt Q9BXP8); test: SEC; Superose 6 Increase 10/300 in 1X PBS; both purified
[2] = target: Pregnancy-Associated Plasma Protein A2 (PAPP-A2), wild type (human) (UniProt Q9BXP8); test: native gel or EMSA; blue native PAGE, 3-8% Tris-acetate gels, Tris-glycine native running buffer; both purified
[3] = target: Pregnancy-Associated Plasma Protein A2 (PAPP-A2), wild type (human) (UniProt Q9BXP8); test: reducing and non-reducing SDS-PAGE; 4-12% Bis-Tris gels, non-reduced samples not boiled, Coomassie stain; both purified

Measured: binding

Pregnancy-Associated Plasma Protein A2 (PAPP-A2), wild type (from UniProt Q9BXP8 235-1791) (enzyme)
no binding: all assays above
